# For part of these data: The hits were mostly taken out for another list; the other results follow. The entries are a selection whose mix differs from that of the whole data set. Active and inactive are the calls of the source. The calls were made as follows, unless noted: active = hit-call score of the fitted dose curve at least 0.9, where 1 is the maximum; inactive = score below 0.9.
# The chains behind the UniProt entries cited, without tags or fusion partners. Where a name states a change or a piece, a line headed by the entry shows the natural chain unless it says otherwise.
# UniProt P37231: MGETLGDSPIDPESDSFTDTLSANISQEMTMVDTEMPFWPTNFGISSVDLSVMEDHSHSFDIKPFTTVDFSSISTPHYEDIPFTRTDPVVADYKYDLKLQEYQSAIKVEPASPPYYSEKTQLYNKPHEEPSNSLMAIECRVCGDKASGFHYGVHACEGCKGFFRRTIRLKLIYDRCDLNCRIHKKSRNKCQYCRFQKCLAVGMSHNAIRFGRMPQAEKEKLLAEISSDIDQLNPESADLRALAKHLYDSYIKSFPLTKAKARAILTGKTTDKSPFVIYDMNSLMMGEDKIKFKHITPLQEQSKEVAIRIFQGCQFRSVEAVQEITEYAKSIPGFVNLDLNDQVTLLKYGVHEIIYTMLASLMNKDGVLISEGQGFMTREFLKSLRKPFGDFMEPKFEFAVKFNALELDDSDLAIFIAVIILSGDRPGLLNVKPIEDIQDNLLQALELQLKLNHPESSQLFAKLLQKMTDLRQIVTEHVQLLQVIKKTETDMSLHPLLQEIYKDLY
# UniProt P19838: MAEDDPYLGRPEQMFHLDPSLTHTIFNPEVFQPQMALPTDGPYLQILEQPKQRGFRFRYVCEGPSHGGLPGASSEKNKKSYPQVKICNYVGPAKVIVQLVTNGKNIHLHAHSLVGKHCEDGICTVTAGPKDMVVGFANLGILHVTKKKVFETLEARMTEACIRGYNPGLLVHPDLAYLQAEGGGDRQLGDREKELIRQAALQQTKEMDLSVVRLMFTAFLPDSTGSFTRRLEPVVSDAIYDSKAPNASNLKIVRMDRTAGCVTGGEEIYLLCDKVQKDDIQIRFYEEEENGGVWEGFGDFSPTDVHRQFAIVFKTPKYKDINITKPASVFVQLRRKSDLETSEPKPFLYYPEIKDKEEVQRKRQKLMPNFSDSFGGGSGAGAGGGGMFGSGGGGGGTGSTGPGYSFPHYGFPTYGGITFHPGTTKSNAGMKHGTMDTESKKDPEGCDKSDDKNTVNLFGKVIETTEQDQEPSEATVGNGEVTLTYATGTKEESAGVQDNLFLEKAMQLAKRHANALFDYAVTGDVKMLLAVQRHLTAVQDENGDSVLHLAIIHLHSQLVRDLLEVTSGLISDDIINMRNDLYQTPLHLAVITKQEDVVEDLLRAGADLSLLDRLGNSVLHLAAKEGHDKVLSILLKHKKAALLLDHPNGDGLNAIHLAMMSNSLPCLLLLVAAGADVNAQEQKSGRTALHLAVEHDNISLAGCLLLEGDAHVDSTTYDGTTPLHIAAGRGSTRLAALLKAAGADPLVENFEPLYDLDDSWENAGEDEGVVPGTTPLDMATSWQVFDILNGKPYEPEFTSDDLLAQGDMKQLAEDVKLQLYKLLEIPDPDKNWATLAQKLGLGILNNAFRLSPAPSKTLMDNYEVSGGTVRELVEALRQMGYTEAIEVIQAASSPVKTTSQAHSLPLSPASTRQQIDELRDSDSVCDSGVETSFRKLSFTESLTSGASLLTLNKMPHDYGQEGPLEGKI
# Experiments:
# [1] = CEETOX_H295R_CORTISOL: CeeTox H295R High-throughput Steroidogenesis Assay for Cortisol (AID 2283438); details: actives raise or lower the signal;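 also: cortisol secreted into medium quantified by LC-MS/MS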
# Summary of the method: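 Cortisol synthesis by H295R cells is measured 48 h after chemical dosing, following a 48 h stimulation with 10 uM forskolin. Hormone is extracted and quantified by HPLC-MS/MS, and activity is fitted bidirectionally against the DMSO control.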
# [2] = biological target: Peroxisome proliferator-activated receptor gamma (Homo sapiens) (UniProt P37231); test: OT_PPARg_PPARgSRC1_1440: Odyssey Thera (OT) 24-hour Protein-Complementation Assay for Peroxisome Proliferator-activated Receptor Gamma/ SRC-1 Co-activator (AID 2283388; active = hit-call score of the fitted dose curve at least 0.9, where 1 is the maximum)
# Summary of the method: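 HEK293T cells transiently transfected with PPARg and SRC-1 fused via (Gly4Ser)2 linker to split Venus YFP fragments (IFP1/IFP2) were dosed 24 h; fixed, Draq5-stained, imaged at 488/635 nm; nuclear/cytoplasmic fluorescence ratio scored versus DMSO baseline, gain-of-signal.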
# [3] = read-out: ABC Transporter (ABCC3), ABCC3 (gene 8714); test: LTEA_HepaRG_ABCC3: Life Technologies and Expression Analysis (LTEA) Assay for ABC Transporter (ABCC3) using HepaRG (AID 2283462); details: actives raise or lower the signal; mRNA level, 48 h
# Summary of the method: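 HepaRG cells in serum-free induction medium were exposed for 48 h in duplicate to 8-point half-log concentrations topping at 100 uM in 0.5% DMSO. ABCC3 mRNA was measured by qRT-PCR normalized to ACTB, GAPDH and POLR2A, with bidirectional fitting versus DMSO.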
# [4] = read-out: JUN Transcription Factor, JUN (gene 3725); test: LTEA_HepaRG_JUN: Life Technologies and Expression Analysis (LTEA) Assay for JUN Transcription Factor using HepaRG (AID 2283513); details: actives raise or lower the signal; mRNA level, 48 h
# Summary of the method: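 Read-out is JUN transcript level by TaqMan qRT-PCR, normalized to ACTB, GAPDH and POLR2A, after 48 h chemical treatment of HepaRG cells. Concentration-response spanned eight half-log points up to 100 uM in 0.5% DMSO.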
# CYP2C9 (gene 1559) = test: LTEA_HepaRG_CYP2C9: Life Technologies and Expression Analysis (LTEA) Assay for CYP2C9 using HepaRG (AID 2283484); details: actives raise or lower the signal; mRNA level, 48 h
# Summary of the method: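 CYP2C9 transcript level, quantified by TaqMan qRT-PCR against three housekeeping genes, was fitted bidirectionally relative to 0.5% DMSO. HepaRG cultures were treated 48 h, in duplicate, at eight half-log concentrations topping at 100 uM.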
# [5] = CEETOX_H295R_PROG: CeeTox H295R High-throughput Steroidogenesis Assay for Progesterone (PROG) (AID 2283442); details: actives raise or lower the signal;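 also: human H295R adrenal cells primed with 10 µM forskolin before dosing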
# Summary of the method: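 H295R human adrenal cells were prestimulated with 10 uM forskolin for 48 h, then exposed to test chemical (0.1% DMSO final) for 48 h. Medium progesterone was MTBE-extracted and quantified by HPLC-MS/MS, with bidirectional fitting against DMSO.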
# [6] = read-out: cysteine-aspartic acid protease (CASP8), CASP8 (gene 841); test: LTEA_HepaRG_CASP8: Life Technologies and Expression Analysis (LTEA) Assay for cysteine-aspartic acid protease (CASP8) using HepaRG (AID 2283480); details: actives raise or lower the signal; mRNA level, 48 h
# Summary of the method: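 CASP8 transcript measured by TaqMan qRT-PCR with ACTB/GAPDH/POLR2A normalization, after 48 h chemical exposure of HepaRG cells in serum-free induction medium. Eight concentrations, top 100 uM, half-log steps, 0.5% DMSO vehicle; fits in both directions versus DMSO.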
# [7] = read-out: Ezrin (EZR), EZR (gene 7430); test: LTEA_HepaRG_EZR: Life Technologies and Expression Analysis (LTEA) Assay for Ezrin (EZR) using HepaRG (AID 2283491); details: actives raise or lower the signal; mRNA level, 48 h
# [8] = read-out: Glutathione S-transferase M3 (GSTM3), GSTM3 (gene 2947); test: LTEA_HepaRG_GSTM3: Life Technologies and Expression Analysis (LTEA) Assay for Glutathione S-transferase M3 (GSTM3) using HepaRG (AID 2283501); details: actives raise or lower the signal; mRNA level, 48 h
# Summary of the method: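 Differentiated HepaRG cells in serum-free induction medium were exposed in duplicate for 48 h to 8 half-log concentrations up to 100 uM in 0.5% DMSO. GSTM3 mRNA was measured by TaqMan qRT-PCR, normalized to ACTB/GAPDH/POLR2A, and fitted bidirectionally versus DMSO.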
# [9] = read-out: Nuclear factor NF-kappa-B p105 subunit (Homo sapiens) (UniProt P19838); test: LTEA_HepaRG_NFKB1: Life Technologies and Expression Analysis (LTEA) Assay for Nuclear Factor Kappa B Subunit 1 (NFKB1) using HepaRG (AID 2283521); details: actives raise or lower the signal; mRNA level, 48 h
# Summary of the method: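 Human HepaRG cells receive eight half-log concentrations, highest 100 uM, for 48 h. NFKB1 expression is then quantified by qRT-PCR and analysed for up- or down-regulation relative to 0.5% DMSO vehicle.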
# [10] = CEETOX_H295R_OHPROG: CeeTox H295R High-throughput Steroidogenesis Assay for OH-Progesterone (OHPROG) (AID 2283435); details: actives raise or lower the signal;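 also: 17alpha-hydroxyprogesterone secreted into medium measured by HPLC-MS/MS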
# [11] = CEETOX_H295R_ESTRADIOL: CeeTox H295R High-throughput Steroidogenesis Assay for Estradiol (AID 2283440); details: actives raise or lower the signal;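 also: estradiol secreted into medium quantified by LC-MS/MS after dansyl derivatisation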
# Summary of the method: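 H295R adrenocortical cells were prestimulated with 10 uM forskolin for 48 h, then exposed to test chemical in 0.1% DMSO for 48 h. Medium estradiol was extracted with MTBE, dansyl-derivatized and quantified by HPLC-MS/MS; bidirectional fit versus DMSO.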
smiles,measurement,setting,value
c1coc(CNc2ncnc3nc[nH]c23)c1,outcome,[1],inactive
CC(C)(C)c1cc(C(C)(C)C)c(O)c(C(C)(C)C)c1,outcome,[2],inactive
same,outcome,[3],inactive
same,outcome,[4],inactive
CN1CCCC1=O,outcome,[2],inactive
same,outcome,CYP2C9 (gene 1559),inactive
CN(C)c1ccc(C(=N)c2ccc(N(C)C)cc2)cc1,outcome,[1],inactive
Oc1ccccc1O,outcome,[1],inactive
c1ccc2c(c1)-c1cccc3c1c-2cc1ccccc13,AC50,[5],active: 2.37 µM
same,AC50,[6],active: 32.9 µM
same,AC50,[7],active: 10.2 µM
same,outcome,[8],inactive
same,AC50,[9],active: 8.75 µM
Cc1ncc([C@@H](CCCCCCc2ccc3c(n2)NCCC3)CC(=O)O)cn1,AC50,[10],active: 50 µM
same,outcome,[11],inactive

# Reference: PubChem BioAssay (EPA / NIEHS)
